Test results as given in paper PMC8269334.
These are yes or no findings as the source states them, for the method shown. In cells and extracts the contact can be indirect. Some binding calls cover weakened binding; strength is not graded here.

By UniProt entry, the sequences of proteins in these tests, tags left out.
UniProt P06748: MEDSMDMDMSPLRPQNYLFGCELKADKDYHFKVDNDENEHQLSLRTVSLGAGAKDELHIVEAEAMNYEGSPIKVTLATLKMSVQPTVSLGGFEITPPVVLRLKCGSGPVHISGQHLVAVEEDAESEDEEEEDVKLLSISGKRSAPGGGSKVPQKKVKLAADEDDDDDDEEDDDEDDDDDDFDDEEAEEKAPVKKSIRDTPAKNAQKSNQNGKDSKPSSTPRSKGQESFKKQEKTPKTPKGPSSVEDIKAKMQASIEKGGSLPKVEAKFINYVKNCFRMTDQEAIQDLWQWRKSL

Assays:
eGFP_NPMwt (human) = eGFP_NPMwt (human) (UniProt P06748); assay: co-IP; GFP-Trap and RFP-Trap on lysates of HEK-293T cells co-transfected with an eGFP-tagged and an mRFP1-tagged construct; with or without 4 µM Selinexor for 2 h before the precipitation; co-precipitated proteins detected by immunoblotting
mRFP1_p53wt (human) = mRFP1_p53wt (human) (UniProt P04637); assay: as above

B1: fibrillarin (endogenous, HEK-293T) (protein, UniProt P22087 1-321)
chain: MKPGFSPRGGGFGGRGGFGDRGGRGGRGGFGGGRGRGGGFRGRGRGGGGGGGGGGGGGRGGGGFHSGGNRGRGRGGKRGNQSGKNVMVEPHRHEGVFICRGKEDALVTKNLVPGESVYGEKRVSISEGDDKIEYRAWNPFRSKLAAAILGGVDQIHIKPGAKVLYLGAASGTTVSHVSDIVGPDGLVYAVEFSHRSGRDLINLAKKRTNIIPVIEDARHPHKYRMLIAMVDVIFADVAQPDQTRIVALNAHTFLRNGGHFVISIKANCIDSTASAEAVFASEVKKMQQENMKPQEQLTLEPYERDHAVVVGVYRPPPKVKN
Question: How did the binding (eGFP_NPMwt (human)) turn out when B1 was run?
Answer: binds

Question: What about the binding (mRFP1_p53wt (human)) of the same binder?
Answer: binds
